Read-outs that look alike come from different tables or passages of the source.
Columns and labels:
[1] = rat
[2] = rats
in vivo = settings: male, Sprague-Dawley, rat, plasma, po, rats; for AUC(0-t): AUC0–24h; for CL/F: CLz/F; for MRT inf: MRT0-∞; for Vd/F: Vz/F
[3] = Plasma concentrations of ATO, metabolites and VOR in patients (HPLC-MS/MS); type: in vivo, human; parameters: Concentration in human blood samples: unit not given here; settings: for Concentration in human blood samples: n = 3; for Increase of ATO concentration in the VOR group: VOR + ATO vs ATO alone
Excerpt: The experimental procedures were approved by the Ethics Committee of Shenzhen Hospital of Southern Medical University, and conducted in accordance with the Declaration of Helsinki (No. NYSZYYEC20180017). Subjects were selected from patients seen in the Department of Critical Care Medicine of Shenzhen Hospital of Southern Medical University, who were diagnosed with fungal infections complicated by cardiovascular and cerebrovascular diseases. Written informed consent was obtained from three patients aged 20-55 years. […] All procedures followed the ethical principles of the World Medical Association (WMA) Declaration of Helsinki and were approved by the Medical Ethics Committee of Shenzhen Hospital. […] Prelude […] The injection volume is 2 μL.

[4] = VOR 6-day pretreatment + ATO 2 mg/kg oral
[5] = 2 mg/kg, VOR 6-day pretreatment + ATO 2 mg/kg oral

CC(C)c1c(C(=O)Nc2ccccc2)c(-c2ccccc2)c(-c2ccc(F)cc2)n1CC[C@@H](O)C[C@@H](O)CC(=O)O [ATO, atorvastatin]
Stability, measured concentration (mean ± SD) ([1]; 0.05 ng/mL): 0.044 ± 0.007 ng/mL | Stability, measured concentration (mean ± SD) ([1]; 5 ng/mL): 4.784 ± 0.357 ng/mL | Stability, measured concentration (mean ± SD) ([1]; 80 ng/mL): 73.885 ± 9.852 ng/mL | Stability, measured concentration (mean ± SD) ([1]; 24 h, 0.05 ng/mL): 0.047 ± 0.005 ng/mL | Stability, measured concentration (mean ± SD) ([1]; 24 h, 5 ng/mL): 4.773 ± 0.423 ng/mL | Stability, measured concentration (mean ± SD) ([1]; 24 h, 80 ng/mL): 77.681 ± 6.004 ng/mL | AUC0–24h ([2]; NS + ATO 2 mg/kg oral): 53.863 ± 5.221 µg·h/L | AUC0-∞ [2, 4]: 194.937 ± 47.325 µg·h/L | AUC0–24h [2, 4]: 176.848 ± 24.713 µg·h/L | AUC(0-t) (in vivo; 2 mg/kg, NS + ATO 2 mg/kg oral): 53.9 ng·h/mL | AUC(0-t) (in vivo; [5]): 177 ng·h/mL | CL/F (in vivo; 2 mg/kg, NS + ATO 2 mg/kg oral): 67.3 mL/min/kg | CL/F (in vivo; [5]): 6.98 mL/min/kg | Cmax (in vivo; 2 mg/kg, NS + ATO 2 mg/kg oral): 33.3 ± 4.03 ng/mL | Cmax (in vivo; [5]): 32.5 ± 7.14 ng/mL | MRT inf (in vivo; 2 mg/kg, NS + ATO 2 mg/kg oral): 6.73 ± 1.4 h | MRT inf (in vivo; [5]): 6.73 ± 1.4 h | Tmax (in vivo; 2 mg/kg, NS + ATO 2 mg/kg oral): 0.34 h | Tmax (in vivo; [5]): 2 h | Vd/F (in vivo; 2 mg/kg, NS + ATO 2 mg/kg oral): 10.19 ± 0.065 L/kg | Vd/F (in vivo; [5]): 2.27 ± 11 L/kg | MRT inf (in vivo; [4]): 4.17 ± 0.848 h | Concentration in human blood samples ([3]; ATO 20 mg alone, 0 h after taking ATO): 2.697 ± 1.342 | Concentration in human blood samples ([3]; ATO 20 mg alone, 1 h after taking ATO): 25.710 ± 1.426 | Concentration in human blood samples ([3]; ATO 20 mg alone, 2 h after taking ATO): 17.093 ± 3.491 | Concentration in human blood samples ([3]; ATO 20 mg alone, 12 h after taking ATO): 2.663 ± 1.678 | Concentration in human blood samples ([3]; ATO 20 mg alone, 24 h after taking ATO): 1.210 + 1.326 | Concentration in human blood samples ([3]; VOR + ATO (VOR iv 6 mg/kg day 1, 4 mg/kg days 2–3), 0 h after taking ATO): 10.502 + 2.104 | Increase of ATO concentration in the VOR group ([3]; 0 h after ATO): 3.89 fold | Increase of ATO concentration in the VOR group ([3]; 1 h after ATO): 1.60 fold | Increase of ATO concentration in the VOR group ([3]; 2 h after ATO): 2.79 fold | Increase of ATO concentration in the VOR group ([3]; 12 h after ATO): 10.07 fold | Increase of ATO concentration in the VOR group ([3]; 24 h after ATO): 16.89 fold | Concentration in human blood samples ([3]; VOR + ATO, 1 h after taking ATO): 41.227 + 4.557 | Concentration in human blood samples ([3]; VOR + ATO, 2 h after taking ATO): 47.753 + 3.937 | Concentration in human blood samples ([3]; VOR + ATO, 12 h after taking ATO): 26.818 + 3.867 | Concentration in human blood samples ([3]; VOR + ATO, 24 h after taking ATO): 20.437 + 5.778

Source: article PMC10213937 (Frontiers in Pharmacology, 2023)
